The whole screen tested about 320,000 compounds, of which about 2,100 (0.66%) were called active. The shares of active, inactive and inconclusive entries below differ from those in the screen. The call rests on the fitted dose curve; in most records, active means well fitted inhibition curve with a large enough effect in the signal ratio, with a control signal flat (not every such curve was filed as active); inconclusive means small, poorly fitted or top-dose-only effect, or effect the other way, or a change in a side signal; inactive means flat fitted curve, though single readings scatter; the % refers to the signal ratio. Where the call is inconclusive, the potency comes from a doubtful curve fit.
Test: qHTS Assay for Lipid Storage Modulators in Drosophila S3 Cells
Conditions: BODIPY lipid droplet fluorescence, 18-24 h, cells fed with added oleic acid; lipid storage change, negative = inhibition: at 46.1 µM (top of the series) unless noted
Summary of the method: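 Drosophila S3 cells loaded with oleic acid (400 uM, as added) and compounds at several concentrations; lipid droplets imaged by 488-nm laser-scanning cytometry, 500–530 nm intensity and object ratio to cell channel. Percent activity normalized to 20 uM Triacsin C.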
On the % scale 0 is the no-effect control and ±100 the full control effect; potency means the concentration at half of the fitted maximal effect.

Row | Compound | Potency | lipid storage change, negative = inhibition | outcome
1 | COc1ccc(OC)c(N=c2ssnc2Cl)c1 | inconclusive: 18.4 µM [cytotoxic, partial curve] | – | –
2 | CCOc1ccc(S(=O)(=O)N(C)CC(=O)NCc2ccccn2)cc1 | inconclusive: 8.2 µM [activator, partial curve] | – | –
3 | CCOc1ccc(NS(=O)(=O)c2ccc(NC(=O)[C@@H]3CCCC[C@@H]3C(=O)O)cc2)cc1 | inconclusive: 29.1 µM [falling, single point] | – | –
4 | C/C(=N/NC(=O)c1cc(C2CC2)[nH]n1)c1cccs1 | inconclusive: 0.326 µM [falling, single point] | – | –
5 | CN(c1ccc(C(=O)N2CCN(c3ccccc3F)CC2)cc1)S(=O)(=O)c1ccccc1 | – | inconclusive: -71.9% | –
6 | Cc1ccc(O)c(C(=O)c2cnn(C(=O)COc3ccccc3C#N)c2)c1 | – | inconclusive: 7.27% | –
7 | CC1(C)NC(=O)N(CC(=O)OCC(=O)N2CCN(S(=O)(=O)c3ccccc3)CC2)C1=O | – | inconclusive | –
8 | CSc1ccc(CN(C)CC(=O)NC(=O)NC(C)(C)C)cc1 | – | inconclusive: 80.6% | –
9 | Cn1c(=O)n(C)c2cc(/C=N/NC(=S)NCc3ccccc3)ccc21 | – | inconclusive: -5.58% | –
10 | COc1ccc(/C=C2\SC(=S)N(CC(=O)NNC(=O)c3ccncc3)C2=O)cc1 | inconclusive: 6.51 µM [rising, single point] | – | –
11 | Cc1ccccc1NS(=O)(=O)c1cc(C(=O)NCCC2=CCCCC2)ccc1C | – | inconclusive: -15.5% | –
12 | NC(=O)C1CCCN(Cc2ccc(Cl)cc2)C1 (centres undefined) | active: 29.1 µM | – | –
13 | CC1(C)CC2(CCO1)OC(=O)CC2C(=O)NCCc1ccccc1 (centres undefined) | – | inconclusive: -23.4% | –
14 | CCOc1cccc2cc(C(N)=O)c(=N)oc12 | – | inconclusive: 15.2% | –
15 | CC(=O)c1ccc(N(CC(=O)NC2CCCCC2)C(=O)CNC(=O)c2ccco2)cc1 | inconclusive: 5.17 µM [activator, single point] | – | –
16 | Cc1ccc(OCCn2cc(C(=O)O)c3ccccc32)cc1 | – | inactive: -6.41% | –
17 | COCCNC(=S)NNc1ccc(Cl)c(C(=O)O)c1 | – | inconclusive: -19.8% | –
18 | CCOC(=O)CSc1nnc(-c2cc(OC)c(OC)c(OC)c2)o1 | – | inconclusive: 8.5% | –
19 | O=S(=O)(Nc1cccc(C(F)(F)F)c1)c1cnc[nH]1 | – | inconclusive: 10.6% | –
20 | COc1ccccc1NC(=O)C(=O)/C=C(\O)c1ccccc1 | – | inconclusive: -22.4% | –
21 | CC(C)CN(CC(C)C)C(=O)Nc1ccccc1F | – | inconclusive: -23.8% | –
22 | CCN(CC(=O)NCc1cccs1)C(=O)C(c1ccccc1)c1ccccc1 | inconclusive: 1.46 µM [activator, partial curve] | – | –
23 | Cc1c(C(=O)N(C)CCn2ccnc2C)oc2c(F)cccc12 | – | inconclusive: 17.7% | –
24 | O=C(c1cccc(NC2=NC3CS(=O)(=O)CC3S2)c1)N1CCN(c2ccc(F)cc2)CC1 (centres undefined) | – | inconclusive: 35% | –
25 | COc1ccc(NC(=S)Nc2cccc(C(F)(F)F)c2)c(C)c1 | – | inconclusive: 3.17% | –

Record cards, from the list above:
COc1ccc(OC)c(N=c2ssnc2Cl)c1 reads Potency: inconclusive: 18.4 µM [cytotoxic, partial curve]
COc1ccccc1NC(=O)C(=O)/C=C(\O)c1ccccc1 reads lipid storage change, negative = inhibition: inconclusive: -22.4%
O=S(=O)(Nc1cccc(C(F)(F)F)c1)c1cnc[nH]1 reads lipid storage change, negative = inhibition: inconclusive: 10.6%

Remaining list, next part:

Row | Compound | Potency | lipid storage change, negative = inhibition | outcome
26 | COc1cc(NC(=O)CSc2ccc(-c3ccco3)nn2)cc(OC)c1 | – | inconclusive: -55.5% | –
27 | NC(=O)CC(NC(=O)c1cccc(Br)c1)c1ccc(NCCN2CCOCC2)c([N+](=O)[O-])c1 (centres undefined) | inconclusive: 32.6 µM [falling, single point] | – | –
28 | O=S(=O)(NCc1ccncc1)c1ccc(S(=O)(=O)NCC2CCCO2)cc1 (centres undefined) | – | inconclusive: 14.5% | –
29 | O=C(COc1ccccc1Cl)NNC(=O)c1cc(S(=O)(=O)N2CCOCC2)ccc1N1CCCC1 | – | inconclusive: -9.96% | –
30 | Cc1cccc(CCNC(=O)C2CCC(=O)N2Cc2ccc(F)cc2)c1 (centres undefined) | – | inconclusive: -30.9% | –
31 | COc1ccc(OC)c(N(CC(=O)N2CCOCC2)S(C)(=O)=O)c1 | – | inconclusive: 49.1% | –
32 | COc1cc(NC(=O)c2cccs2)c(C(=O)OCC(=O)NCc2ccccc2)cc1OC | – | inconclusive: 76.5% | –
33 | CC(C)N1CC(C(=O)Nc2cccc([N+](=O)[O-])c2)CC1=O (centres undefined) | inconclusive: 0.411 µM [falling, full curve, poor fit] | – | –
34 | COc1ccccc1/C=C\C=N\n1c(-c2ccc(Cl)cc2Cl)n[nH]c1=S | inconclusive: 8.2 µM [activator, partial curve] | – | –
35 | CCOC(=O)C(CSCC(=O)c1ccc(Br)cc1)NC(=O)OC(C)(C)C (centres undefined) | inconclusive: 6.51 µM [cytotoxic, single point] | – | –
36 | COc1ccc(N2CC(C)(C)C2=O)cc1 | – | inconclusive: -2.64% | –
37 | COC(=O)c1sccc1NC(=O)Nc1cc(C)cc(C)c1 | – | inconclusive: 16.4% | –
38 | O=C(Cn1c(=O)n(CCC(=O)N2CCCCC2)c(=O)c2sccc21)NCc1ccccc1 | inconclusive: 0.092 µM [falling, full curve] | – | –
39 | O=C(c1cc(-c2ccccc2)nc2ccccc12)N1CCN(c2ccccc2O)CC1 | inconclusive: 29.1 µM [falling, single point] | – | –
40 | NS(=O)(=O)c1cccc(NC(=O)CN2CCN(Cc3ccc4c(c3)OCO4)CC2)c1 | – | inconclusive: -15.6% | –
41 | O=C(Nc1nnc(CCS(=O)(=O)c2ccc3ccccc3c2)s1)c1ccc([N+](=O)[O-])cc1 | – | inconclusive: -0.207% | –
42 | CC1(C)CC(=O)C(Sc2ccccc2C(=O)O)=C(O)C1 | – | inconclusive: 7.11% | –
43 | O=C(Nc1ncn[nH]1)c1c(Cl)ccc(Cl)c1Cl | – | inconclusive: 44.3% | –
44 | O=C(NCCO)c1cccc(S(=O)(=O)N2CCCCC2)c1 | – | inconclusive: -5.54% | –
45 | O=C1COc2ccc(C(=O)COC(=O)Cc3ccsc3)cc2N1 | – | inconclusive: 0.164% | –
46 | CCc1cc(C(=O)N2CCN(C(=O)c3ccco3)CC2)sc1C | – | inconclusive: -5.22% | –
47 | Cc1ccc(C(=O)N/C(=C/c2ccccc2)C(=O)NC(Cc2ccccc2)C(=O)O)cc1 (centres undefined) | inconclusive: 18.4 µM [falling, partial curve, poor fit] | – | –
48 | COCCN(C(=O)COC(=O)c1ccc2c(c1)OCCO2)c1c(N)n(Cc2ccccc2)c(=O)[nH]c1=O | – | inconclusive | –
49 | Cc1n[nH]c(C)c1S(=O)(=O)N1CCc2ccccc2C1 | – | – | inactive [at 46.1 µM]

From PubChem BioAssay AID2685 (National Center for Advancing Translational Sciences (NCATS), 2010)
